# Results as given in PubChem BioAssay AID1487 (National Center for Advancing Translational Sciences (NCATS), 2009).
# This is one part of the list. Further columns of the screen follow, without active or inactive calls. Compounds called inactive in the main read-out are mostly missing here. Potencies come from curve fits of mixed quality, noted in brackets.
# Assay: qHTS Assay for Modulators of Lamin A Splicing
# Conditions: HeLa LMNA splicing GFP/RFP minigene ratio, 48 h
# Method in brief: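 Read-out is the ratio of GFP to DsRed2 object intensity, acquired by 488 nm laser-scanning cytometry on HeLa lamin A-EGFP minigene reporter cells. Compound incubation 48 hrs at 37 °C in Opti-MEM with 2% FBS; DMSO 0.5% final.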
# [1] = measured here: RFP viability control channel
# [2] = measured here: GFP splicing reporter channel
SMILES,AC50 [1],AC50 [2]
COc1ccc(NC(=O)c2ccc(-c3ccccc3)cc2)cc1NS(=O)(=O)c1ccc(F)cc1,"3.16 µM [rising, full curve]",–
CCN1CCCC1CNCc1ccccc1OCc1ccc(F)cc1 (stereo not given),"35.5 µM [rising, single point]",–
CCOC(=O)C1(CCc2ccccc2)CCN(C(=O)Cc2nonc2C)CC1,"0.00447 µM [falling, full curve]",–
Cc1cccnc1NCc1ccc(O)c2ncccc12,"35.5 µM [rising, single point]",–
O=C(Nc1ccc([N+](=O)[O-])cc1)c1ccc(Cn2cc([N+](=O)[O-])cn2)cc1,"5.01 µM [rising, partial curve, poor fit]","1.12 µM [rising, partial curve, poor fit]"
Cc1cccc(OCC(=O)N(Cc2cccs2)c2ccc(Cl)cc2)c1C,"11.2 µM [rising, partial curve, poor fit]",–
O=C(N/N=C/c1c[nH]c2ccccc12)C1CC1c1ccccc1 (stereo not given),"20 µM [rising, single point]",–
Brc1ccc2ncnc(NCc3ccco3)c2c1,"3.16 µM [rising, full curve]",–
CN1CCN(c2ncc3nc(-c4cccc(C#N)c4)c(=O)n(Cc4ccc(F)cc4)c3n2)CC1,"12.6 µM [falling, partial curve]","20 µM [falling, partial curve]"
CC(C)C(=O)Nc1cc(S(=O)(=O)Nc2ccc(Cl)cc2)ccc1Cl,"4.47 µM [rising, partial curve]",–
Cc1cc(=S)cc(C)n1CCCn1ccnc1,–,"39.8 µM [falling, partial curve, poor fit]"
O=C(NNC(=O)c1ccc(Br)o1)c1ccc(NC(=O)c2ccccc2)cc1,"6.31 µM [rising, single point]",–
O=c1[nH]c(Cn2nnc(-c3ccccc3)n2)nc2scc(-c3ccccc3)c12,"12.6 µM [rising, single point]","11.2 µM [rising, partial curve, poor fit]"
O=C1c2oc3ccccc3c(=O)c2C(c2ccccc2)N1Cc1ccc2c(c1)OCO2 (stereo not given),–,"0.0355 µM [rising, full curve, poor fit]"
O=C(CS(=O)CC(=O)N(c1cccc(F)c1)C(C(=O)NC1CCCCC1)c1ccco1)Nc1ccc(F)cc1 (stereo not given),–,"0.0112 µM [rising, full curve, poor fit]"
C=CCN1C(=O)/C(=C/c2ccc(OCC(=O)O)cc2)S/C1=N/c1nccs1,–,"11.2 µM [rising, partial curve, poor fit]"
O=C(C[n+]1cccc(CNC(=O)c2ccc(OC(F)F)cc2)c1)Nc1ccc(SC(F)F)cc1,"28.2 µM [rising, single point]","25.1 µM [rising, single point]"
CC1CC/C(=C\c2ccc3c(c2)OCO3)C(=O)/C1=C/c1ccc2c(c1)OCO2 (stereo not given),"35.5 µM [falling, single point]","35.5 µM [falling, single point]"

# Among those listed so far, these have a furan ring, fused or not.
SMILES,AC50 [1],AC50 [2]
Brc1ccc2ncnc(NCc3ccco3)c2c1,"3.16 µM [rising, full curve]",–
O=C(NNC(=O)c1ccc(Br)o1)c1ccc(NC(=O)c2ccccc2)cc1,"6.31 µM [rising, single point]",–
O=C(CS(=O)CC(=O)N(c1cccc(F)c1)C(C(=O)NC1CCCCC1)c1ccco1)Nc1ccc(F)cc1 (stereo not given),–,"0.0112 µM [rising, full curve, poor fit]"

# (further entries)

SMILES,AC50 [1],AC50 [2]
Cc1ccc(CSc2nnc(-c3ccc(NS(=O)(=O)c4ccccc4)cc3)o2)cc1,"35.5 µM [rising, single point]",–
CCN1C(=O)c2ccccc2Sc2ccc(C(=O)NCCCN(CC(C)C)CC(C)C)cc21,–,"11.2 µM [falling, partial curve, poor fit]"
O=C1CCCN1CCC1CCN(C2CC(=O)N(Cc3ccc(N4CCCC4=O)cc3)C2=O)CC1 (stereo not given),–,"11.2 µM [rising, single point]"
COc1cc(C2CC(=O)Oc3c2c(=O)n(C)c2ccccc32)ccc1O (stereo not given),–,"15.8 µM [falling, single point]"
CCC1(C)OCC(Cn2c3ccccc3c3ccccc32)O1 (stereo not given),"35.5 µM [rising, single point]",–
Cc1ccc(NC(=O)c2ccc(OC(F)F)cc2)cc1S(=O)(=O)N(C)C,"22.4 µM [rising, single point]","20 µM [rising, single point]"
O=[N+]([O-])c1ccc(Nc2nc(N/N=C\c3ccc4c(c3)OCO4)nc(N3CCCCC3)n2)cc1,"8.91 µM [rising, partial curve, poor fit]",–
CN1CCN(C(=S)c2ccc(-c3cccc(Cl)c3Cl)o2)CC1,"35.5 µM [rising, single point]","17.8 µM [rising, single point]"
COc1ccc(-c2cc(C(C)=O)c(C)n2CCC(=O)Nc2cc(Cl)ccc2C)cc1,"35.5 µM [falling, partial curve, poor fit]",–
Cc1ncoc1C(=O)N1CCCC(C(=O)c2cccc(C(F)(F)F)c2)C1 (stereo not given),"0.0708 µM [falling, full curve, poor fit]",–
CCOC(=O)C1CCN(S(=O)(=O)c2ccc3c(c2)N(C)C(=O)CC(=O)N3C)CC1,–,"10 µM [rising, partial curve, poor fit]"
CCOc1ccccc1NC(=O)C1=C(C)NC(=S)NC1c1cccs1 (stereo not given),"10 µM [rising, single point]",–
O=C(COC(=O)c1cccc(Br)c1)NCCC1=CCCCC1,–,"0.01 µM [falling, full curve, poor fit]"
Cc1cc(NC(=O)CSc2ccccn2)no1,–,"1.12 µM [falling, partial curve, poor fit]"
Cc1cc(=O)n(CC(=O)N2CCN(c3ccccc3F)CC2)c2c1c(C)nn2C,–,"0.00891 µM [falling, full curve, poor fit]"
O=C(NNC1CC(=O)N(c2ccc(Cl)cc2)C1=O)c1ccco1 (stereo not given),"0.112 µM [rising, full curve]","0.00316 µM [rising, full curve, poor fit]"
CCOC(=O)c1[nH]c(C)c(CCC(=O)Nc2cc(C)ccc2OC)c1C,"35.5 µM [rising, single point]",–
CCCc1ccc(-c2cc(C(=O)N/N=C/c3ccc([N+](=O)[O-])o3)c3ccccc3n2)cc1,"3.98 µM [falling, partial curve, poor fit]","35.5 µM [falling, single point]"
